Results are given in words; binding and its absence hold for the method and conditions named. For some of these results: Binding seen in cells or lysates may run through a third protein. Some results given as binding are weak or reduced against the parent protein; the word gives no strength.
Assays:
[1] = molecular target: Flag-EXOC2 (human) (UniProt Q96KP1); assay: co-IP; HEK293T co-transfected with Flag-tagged exocyst subunit and HA-tagged ARF6 or its variants; anti-Flag M2 beads; western blot
[2] = molecular target: GST-EXOC2 (human) (UniProt Q96KP1); assay: pull-down; 500 ng GST or GST-EXOC2 mixed with 200 ng WT or mutant ARF6-Flag in Buffer G (50 mM Tris, pH 7.5, 150 mM NaCl, 0.1% Triton X-100); BSA-blocked Glutathione Sepharose 4B, 1 h at 4 °C; western blot; both purified

By UniProt entry, the sequences of proteins in these tests, tags left out. Where a name states a change or a piece, a line headed by the entry shows the natural chain unless it says otherwise.
UniProt Q96KP1: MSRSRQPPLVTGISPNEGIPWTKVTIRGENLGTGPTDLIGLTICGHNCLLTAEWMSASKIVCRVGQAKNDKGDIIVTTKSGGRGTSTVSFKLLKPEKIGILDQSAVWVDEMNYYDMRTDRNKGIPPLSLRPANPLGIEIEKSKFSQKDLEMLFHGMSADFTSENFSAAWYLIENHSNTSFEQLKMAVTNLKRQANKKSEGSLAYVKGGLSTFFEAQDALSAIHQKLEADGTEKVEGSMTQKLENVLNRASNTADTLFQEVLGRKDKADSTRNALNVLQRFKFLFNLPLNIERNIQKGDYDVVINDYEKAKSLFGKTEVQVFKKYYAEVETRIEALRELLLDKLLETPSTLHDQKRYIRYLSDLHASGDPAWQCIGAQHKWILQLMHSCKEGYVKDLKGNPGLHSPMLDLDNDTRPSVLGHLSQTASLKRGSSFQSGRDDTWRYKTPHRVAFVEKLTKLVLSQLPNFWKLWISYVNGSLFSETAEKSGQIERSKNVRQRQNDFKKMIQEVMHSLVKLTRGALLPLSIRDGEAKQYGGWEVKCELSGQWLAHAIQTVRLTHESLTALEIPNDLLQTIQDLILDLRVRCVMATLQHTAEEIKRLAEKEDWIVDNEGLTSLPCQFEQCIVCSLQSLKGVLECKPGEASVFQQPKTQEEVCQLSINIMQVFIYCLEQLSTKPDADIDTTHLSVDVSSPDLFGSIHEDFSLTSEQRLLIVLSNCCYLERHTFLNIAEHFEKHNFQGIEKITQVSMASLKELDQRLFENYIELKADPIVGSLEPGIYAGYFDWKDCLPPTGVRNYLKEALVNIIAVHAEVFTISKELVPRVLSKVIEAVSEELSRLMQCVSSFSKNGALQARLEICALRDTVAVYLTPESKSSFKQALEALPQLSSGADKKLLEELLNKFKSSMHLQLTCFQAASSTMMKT
UniProt P62330: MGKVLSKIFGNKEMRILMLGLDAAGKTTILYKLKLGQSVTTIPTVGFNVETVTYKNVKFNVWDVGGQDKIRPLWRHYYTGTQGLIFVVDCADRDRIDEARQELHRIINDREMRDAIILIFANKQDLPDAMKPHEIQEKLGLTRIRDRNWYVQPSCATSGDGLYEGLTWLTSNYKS

binding [1]	binding [2]	Substance
binds	–	ARF6 T27N-HA (from UniProt P62330 1-175)
binds	–	ARF6 Q67L-HA (from UniProt P62330 1-175)
binds	–	ARF6-HA (WT) (from UniProt P62330 1-175)
–	binds	ARF6-Flag (WT) (from UniProt P62330 1-175)

From paper PMC9556547
